Results are given in words; binding and its absence hold for the method and conditions named. In cells and extracts the contact can be indirect. Here binding means that the protein was enriched with, or labelled near, the bait; the list need not be complete. Tags and fused reporters may be left off the sequences shown.
Molecular target: T1, N-terminally His10-tagged LapA (E. coli) (UniProt P0ACV4)
T1 sequence: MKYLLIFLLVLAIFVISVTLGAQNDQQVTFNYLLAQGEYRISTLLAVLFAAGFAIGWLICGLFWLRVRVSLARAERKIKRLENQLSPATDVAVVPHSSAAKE
Assay: affinity purification with mass spectrometry; His10-LapA co-expressed with LapB (100 or 500 μM IPTG); IM proteins solubilised with 2% octyl-β-D-glucoside, applied over Ni-NTA beads; eluted proteins resolved on 12% SDS-PAGE and identified by MALDI-TOF

B1: LapB (co-expressed with His10-LapA) (protein, UniProt P0AB58 1-389)
chain: MLELLFLLLPVAAAYGWYMGRRSAQQNKQDEANRLSRDYVAGVNFLLSNQQDKAVDLFLDMLKEDTGTVEAHLTLGNLFRSRGEVDRAIRIHQTLMESASLTYEQRLLAIQQLGRDYMAAGLYDRAEDMFNQLTDETDFRIGALQQLLQIYQATSEWQKAIDVAERLVKLGKDKQRVEIAHFYCELALQHMASDDLDRAMTLLKKGAAADKNSARVSIMMGRVFMAKGEYAKAVESLQRVISQDRELVSETLEMLQTCYQQLGKTAEWAEFLQRAVEENTGADAELMLADIIEARDGSEAAQVYITRQLQRHPTMRVFHKLMDYHLNEAEEGRAKESLMVLRDMVGEKVRSKPRYRCQKCGFTAYTLYWHCPSCRAWSTIKPIRGLDGL
With B1 the binding was “binds”.

Source: PMC7730581
